Data as given in the supplement of paper PMC10849652.
Some of the results follow.

Sequences of proteins named here, by UniProt entry; tags and fusion partners are left off. A change or cut given only in a name is not applied to a line headed by its entry.
UniProt P07288: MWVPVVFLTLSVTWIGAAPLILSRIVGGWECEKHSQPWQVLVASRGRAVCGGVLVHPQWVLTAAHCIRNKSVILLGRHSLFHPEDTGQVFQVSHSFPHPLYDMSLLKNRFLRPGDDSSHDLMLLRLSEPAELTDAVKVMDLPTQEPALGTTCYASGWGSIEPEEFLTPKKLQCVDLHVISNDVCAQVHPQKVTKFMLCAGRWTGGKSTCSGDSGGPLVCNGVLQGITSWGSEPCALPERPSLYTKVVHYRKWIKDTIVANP
UniProt Q53GT1: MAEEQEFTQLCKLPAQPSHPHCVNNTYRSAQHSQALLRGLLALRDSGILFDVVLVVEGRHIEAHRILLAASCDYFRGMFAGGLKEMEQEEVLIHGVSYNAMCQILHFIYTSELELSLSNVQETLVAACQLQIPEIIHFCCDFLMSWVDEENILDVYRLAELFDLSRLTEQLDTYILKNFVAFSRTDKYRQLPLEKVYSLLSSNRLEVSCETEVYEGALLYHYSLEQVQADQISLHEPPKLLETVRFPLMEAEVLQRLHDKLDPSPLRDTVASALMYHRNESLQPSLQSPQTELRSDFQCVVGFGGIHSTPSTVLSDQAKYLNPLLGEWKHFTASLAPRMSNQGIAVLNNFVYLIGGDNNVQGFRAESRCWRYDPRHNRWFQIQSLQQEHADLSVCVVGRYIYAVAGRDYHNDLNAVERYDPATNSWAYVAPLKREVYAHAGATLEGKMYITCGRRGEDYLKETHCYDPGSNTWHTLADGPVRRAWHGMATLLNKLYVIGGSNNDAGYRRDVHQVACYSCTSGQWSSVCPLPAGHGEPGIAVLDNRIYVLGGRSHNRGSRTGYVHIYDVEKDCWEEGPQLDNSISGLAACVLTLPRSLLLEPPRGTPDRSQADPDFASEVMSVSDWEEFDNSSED
UniProt Q96MU8: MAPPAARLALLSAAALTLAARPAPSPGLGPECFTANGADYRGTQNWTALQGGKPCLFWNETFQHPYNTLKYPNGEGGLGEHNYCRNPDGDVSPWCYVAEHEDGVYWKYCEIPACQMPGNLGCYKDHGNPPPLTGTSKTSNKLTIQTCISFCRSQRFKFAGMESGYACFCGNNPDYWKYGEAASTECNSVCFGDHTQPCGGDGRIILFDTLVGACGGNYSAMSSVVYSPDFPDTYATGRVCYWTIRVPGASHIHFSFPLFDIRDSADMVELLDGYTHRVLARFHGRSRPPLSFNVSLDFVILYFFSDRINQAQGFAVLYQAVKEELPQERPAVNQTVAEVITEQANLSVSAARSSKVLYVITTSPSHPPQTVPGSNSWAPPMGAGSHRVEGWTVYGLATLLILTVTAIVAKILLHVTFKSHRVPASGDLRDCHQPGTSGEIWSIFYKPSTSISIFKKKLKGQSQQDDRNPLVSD
UniProt Q9Y2U9: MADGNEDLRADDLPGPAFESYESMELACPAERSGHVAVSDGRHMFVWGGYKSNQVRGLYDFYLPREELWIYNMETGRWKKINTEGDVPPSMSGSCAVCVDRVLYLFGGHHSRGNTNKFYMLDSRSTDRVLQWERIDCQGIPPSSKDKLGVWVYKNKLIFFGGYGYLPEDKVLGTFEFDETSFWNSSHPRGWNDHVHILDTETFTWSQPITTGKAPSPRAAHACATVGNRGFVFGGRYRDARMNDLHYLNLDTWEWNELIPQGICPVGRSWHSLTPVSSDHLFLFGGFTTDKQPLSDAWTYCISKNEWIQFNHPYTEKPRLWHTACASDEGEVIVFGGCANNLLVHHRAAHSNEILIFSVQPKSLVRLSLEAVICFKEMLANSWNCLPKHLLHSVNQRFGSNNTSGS
UniProt Q6ZV70: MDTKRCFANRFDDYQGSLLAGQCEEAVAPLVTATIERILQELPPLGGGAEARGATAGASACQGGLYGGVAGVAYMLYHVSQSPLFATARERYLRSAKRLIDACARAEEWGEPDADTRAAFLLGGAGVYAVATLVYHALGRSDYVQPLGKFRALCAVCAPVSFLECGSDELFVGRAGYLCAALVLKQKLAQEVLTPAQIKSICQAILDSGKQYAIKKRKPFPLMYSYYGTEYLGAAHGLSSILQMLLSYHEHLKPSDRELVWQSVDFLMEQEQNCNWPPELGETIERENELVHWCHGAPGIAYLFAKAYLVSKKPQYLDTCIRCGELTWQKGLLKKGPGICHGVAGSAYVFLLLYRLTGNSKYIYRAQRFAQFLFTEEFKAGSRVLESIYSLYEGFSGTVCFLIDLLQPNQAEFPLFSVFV
UniProt Q9BVG8: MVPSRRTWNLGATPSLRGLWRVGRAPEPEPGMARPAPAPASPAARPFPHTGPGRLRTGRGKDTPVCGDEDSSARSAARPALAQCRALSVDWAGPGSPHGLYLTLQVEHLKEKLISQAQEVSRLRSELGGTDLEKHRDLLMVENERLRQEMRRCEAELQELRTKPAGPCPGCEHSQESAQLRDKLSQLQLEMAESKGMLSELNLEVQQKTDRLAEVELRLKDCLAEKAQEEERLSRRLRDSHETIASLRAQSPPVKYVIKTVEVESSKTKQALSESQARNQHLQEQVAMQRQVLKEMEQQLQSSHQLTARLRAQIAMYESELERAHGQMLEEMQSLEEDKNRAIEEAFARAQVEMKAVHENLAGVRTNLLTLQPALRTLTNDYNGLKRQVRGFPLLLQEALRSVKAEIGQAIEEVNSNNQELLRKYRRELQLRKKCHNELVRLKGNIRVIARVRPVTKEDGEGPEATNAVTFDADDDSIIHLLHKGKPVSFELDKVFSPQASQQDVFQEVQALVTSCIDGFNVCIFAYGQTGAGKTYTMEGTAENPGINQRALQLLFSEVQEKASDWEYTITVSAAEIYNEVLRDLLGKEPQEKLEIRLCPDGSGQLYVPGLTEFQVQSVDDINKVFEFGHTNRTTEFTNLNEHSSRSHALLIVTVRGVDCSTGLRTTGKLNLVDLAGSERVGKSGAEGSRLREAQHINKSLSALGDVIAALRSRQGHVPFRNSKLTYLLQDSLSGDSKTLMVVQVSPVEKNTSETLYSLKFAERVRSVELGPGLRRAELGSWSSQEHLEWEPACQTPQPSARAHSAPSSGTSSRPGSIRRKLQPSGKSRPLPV
UniProt Q07866: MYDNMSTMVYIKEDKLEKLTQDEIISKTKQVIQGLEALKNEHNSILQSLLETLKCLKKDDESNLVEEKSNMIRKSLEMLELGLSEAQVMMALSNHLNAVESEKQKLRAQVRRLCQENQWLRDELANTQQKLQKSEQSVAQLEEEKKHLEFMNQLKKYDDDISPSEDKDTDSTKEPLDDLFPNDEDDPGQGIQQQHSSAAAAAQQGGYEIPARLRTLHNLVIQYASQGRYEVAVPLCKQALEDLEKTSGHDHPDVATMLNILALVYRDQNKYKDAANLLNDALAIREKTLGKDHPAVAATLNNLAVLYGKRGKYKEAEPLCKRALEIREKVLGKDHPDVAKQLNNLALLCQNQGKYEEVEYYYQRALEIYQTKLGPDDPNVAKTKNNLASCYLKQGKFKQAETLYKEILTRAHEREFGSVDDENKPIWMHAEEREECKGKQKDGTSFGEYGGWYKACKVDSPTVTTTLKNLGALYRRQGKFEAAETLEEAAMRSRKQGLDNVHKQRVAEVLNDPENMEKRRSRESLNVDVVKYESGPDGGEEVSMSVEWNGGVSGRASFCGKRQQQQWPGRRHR
UniProt Q8N3Y3: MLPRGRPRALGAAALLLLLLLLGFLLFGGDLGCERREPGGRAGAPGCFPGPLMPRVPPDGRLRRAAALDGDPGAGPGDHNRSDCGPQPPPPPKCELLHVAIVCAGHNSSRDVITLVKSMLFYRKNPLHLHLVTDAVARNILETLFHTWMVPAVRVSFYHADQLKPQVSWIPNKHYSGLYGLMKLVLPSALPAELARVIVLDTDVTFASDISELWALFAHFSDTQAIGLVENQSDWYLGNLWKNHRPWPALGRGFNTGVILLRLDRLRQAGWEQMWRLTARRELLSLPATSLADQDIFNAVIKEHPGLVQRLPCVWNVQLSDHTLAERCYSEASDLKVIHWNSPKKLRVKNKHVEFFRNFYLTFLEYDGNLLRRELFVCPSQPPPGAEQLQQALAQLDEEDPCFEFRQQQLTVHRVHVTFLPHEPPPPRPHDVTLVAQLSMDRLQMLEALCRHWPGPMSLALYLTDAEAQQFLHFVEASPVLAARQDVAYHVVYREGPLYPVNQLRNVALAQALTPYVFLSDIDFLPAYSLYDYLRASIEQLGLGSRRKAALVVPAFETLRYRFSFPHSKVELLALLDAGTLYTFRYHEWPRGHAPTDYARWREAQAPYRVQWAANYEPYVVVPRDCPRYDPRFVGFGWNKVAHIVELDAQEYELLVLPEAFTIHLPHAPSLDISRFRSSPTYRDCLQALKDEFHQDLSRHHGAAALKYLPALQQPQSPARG
UniProt Q13351: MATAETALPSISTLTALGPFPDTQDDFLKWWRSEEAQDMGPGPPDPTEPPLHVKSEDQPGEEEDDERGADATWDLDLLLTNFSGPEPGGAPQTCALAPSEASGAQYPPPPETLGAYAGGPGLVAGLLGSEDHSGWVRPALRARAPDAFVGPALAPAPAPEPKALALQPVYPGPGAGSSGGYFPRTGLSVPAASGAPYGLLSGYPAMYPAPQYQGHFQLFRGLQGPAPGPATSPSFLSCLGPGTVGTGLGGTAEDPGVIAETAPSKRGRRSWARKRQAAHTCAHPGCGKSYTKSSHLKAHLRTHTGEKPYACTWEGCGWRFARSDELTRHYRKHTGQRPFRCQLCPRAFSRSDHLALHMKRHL
UniProt A6NCN2: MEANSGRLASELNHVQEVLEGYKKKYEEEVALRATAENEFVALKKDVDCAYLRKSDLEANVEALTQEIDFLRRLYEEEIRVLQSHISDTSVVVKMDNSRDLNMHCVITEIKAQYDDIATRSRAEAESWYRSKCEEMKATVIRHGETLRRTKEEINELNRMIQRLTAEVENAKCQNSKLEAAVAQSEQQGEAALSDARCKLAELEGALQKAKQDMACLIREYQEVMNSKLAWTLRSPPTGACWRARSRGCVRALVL
UniProt O60303: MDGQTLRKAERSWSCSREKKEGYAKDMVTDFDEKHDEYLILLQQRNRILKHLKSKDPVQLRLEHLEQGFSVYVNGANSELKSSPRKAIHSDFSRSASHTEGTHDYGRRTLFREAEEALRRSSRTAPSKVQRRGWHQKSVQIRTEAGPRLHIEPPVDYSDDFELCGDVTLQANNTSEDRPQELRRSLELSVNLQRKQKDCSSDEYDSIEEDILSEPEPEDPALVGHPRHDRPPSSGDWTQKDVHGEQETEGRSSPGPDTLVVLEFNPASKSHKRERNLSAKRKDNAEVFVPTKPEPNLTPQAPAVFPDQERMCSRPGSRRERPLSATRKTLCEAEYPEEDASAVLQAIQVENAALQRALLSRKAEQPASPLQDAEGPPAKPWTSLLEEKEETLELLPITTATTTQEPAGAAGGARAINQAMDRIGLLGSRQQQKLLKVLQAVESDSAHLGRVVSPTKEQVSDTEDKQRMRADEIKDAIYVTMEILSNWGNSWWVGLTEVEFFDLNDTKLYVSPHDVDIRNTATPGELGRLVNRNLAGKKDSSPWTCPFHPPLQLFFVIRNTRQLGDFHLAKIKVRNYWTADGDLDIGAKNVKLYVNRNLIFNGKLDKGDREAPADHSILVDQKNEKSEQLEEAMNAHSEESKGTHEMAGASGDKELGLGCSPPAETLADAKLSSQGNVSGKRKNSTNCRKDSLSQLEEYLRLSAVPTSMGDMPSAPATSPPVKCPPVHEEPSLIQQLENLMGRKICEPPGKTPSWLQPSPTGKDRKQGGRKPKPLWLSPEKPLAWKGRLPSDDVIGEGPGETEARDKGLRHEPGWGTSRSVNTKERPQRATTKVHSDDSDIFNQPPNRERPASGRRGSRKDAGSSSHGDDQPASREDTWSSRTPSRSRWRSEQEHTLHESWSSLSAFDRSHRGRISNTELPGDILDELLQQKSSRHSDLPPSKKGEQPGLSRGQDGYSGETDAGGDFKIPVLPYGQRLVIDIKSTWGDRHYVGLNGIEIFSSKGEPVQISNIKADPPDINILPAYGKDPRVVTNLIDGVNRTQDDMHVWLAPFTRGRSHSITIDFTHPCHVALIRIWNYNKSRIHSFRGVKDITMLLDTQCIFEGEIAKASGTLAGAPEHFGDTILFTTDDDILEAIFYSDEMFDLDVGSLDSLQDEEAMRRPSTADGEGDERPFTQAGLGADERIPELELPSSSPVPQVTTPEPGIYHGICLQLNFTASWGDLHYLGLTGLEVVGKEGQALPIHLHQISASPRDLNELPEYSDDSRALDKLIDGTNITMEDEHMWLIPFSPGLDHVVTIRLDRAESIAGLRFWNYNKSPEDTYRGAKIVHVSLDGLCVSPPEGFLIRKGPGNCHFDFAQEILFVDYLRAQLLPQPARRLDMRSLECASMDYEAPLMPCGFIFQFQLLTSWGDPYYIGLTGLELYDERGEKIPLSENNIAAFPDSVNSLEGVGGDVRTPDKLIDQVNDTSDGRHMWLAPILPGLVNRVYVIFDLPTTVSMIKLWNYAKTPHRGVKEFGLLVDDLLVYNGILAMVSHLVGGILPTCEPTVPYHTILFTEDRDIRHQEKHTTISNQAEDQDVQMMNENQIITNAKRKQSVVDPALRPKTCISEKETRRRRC

Tests used:
Assay in all cases: log2 fold change, soluble protein after heating vs DMSO (PISA); higher = thermal stabilisation; K562 lysate, 10 uM; active = over 0.2 and 3.5 SD of the protein, either way, in both replicates (recomputed)
dasatinib = compound: Cc1nc(Nc2ncc(C(=O)Nc3c(C)cccc3Cl)s2)cc(N2CCN(CCO)CC2)n1 [dasatinib]
Summary of the method: (§1)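 Thermal stability, expressed as log-two fold change relative to solvent controls, is given from duplicates. Crude K562 extract in PBS pH 7.4 with 1 mM MgCl2, at 1 mg/mL protein, was treated with 10 μM compound for 30 min and heated in aliquots for 3 min across 48°C-58°C. After pooling, adjustment to 0.5% NP-40 at 4°C and centrifugation at 21,000xg for 90 min, supernatant protein was measured by TMTpro 16plex LC-MS/MS with channel sums equalised.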

[1] = compound: Cn1cc(-c2ccc3c(c2)CCN3C(=O)Cc2cccc(C(F)(F)F)c2)c2c(N)ncnc21
Summary of the method: as §1

[2] = compound: NC1(c2ccc(-c3nc4ccn5c(=O)[nH]nc5c4cc3-c3ccccc3)cc2)CCC1
Summary of the method: as §1

[3] = compound: NCC(=O)Nc1ccc(-n2nc(C(F)(F)F)cc2-c2ccc3c(ccc4ccccc43)c2)cc1
Summary of the method: as §1

vorinostat = compound: O=C(CCCCCCC(=O)Nc1ccccc1)NO [vorinostat]
Summary of the method: as §1

silmitasertib = compound: O=C(O)c1ccc2c(c1)nc(Nc1cccc(Cl)c1)c1ccncc12 [silmitasertib]
Summary of the method: as §1

entospletinib = compound: c1cn2cc(-c3ccc4cn[nH]c4c3)nc(Nc3ccc(N4CCOCC4)cc3)c2n1 [entospletinib]
Summary of the method: as §1

quisinostat = compound: Cn1cc(CNCC2CCN(c3ncc(C(=O)NO)cn3)CC2)c2ccccc21 [quisinostat]
Summary of the method: as §1

[4] = compound: NC(=O)Nc1cc(-c2cccc(F)c2)sc1C(=O)N[C@H]1CCCNC1
Summary of the method: as §1

[5] = compound: NC(=O)c1cnc(N[C@@H]2CCCC[C@@H]2N)nc1Nc1cccc(-n2nccn2)c1
Summary of the method: as §1

[6] = compound: O=C1NC(=O)C(c2cnc3ccccn23)=C1c1cn2c3c(cc(F)cc13)CN(C(=O)N1CCCCC1)CC2
Summary of the method: as §1

nilotinib = compound: Cc1cn(-c2cc(NC(=O)c3ccc(C)c(Nc4nccc(-c5cccnc5)n4)c3)cc(C(F)(F)F)c2)cn1 [nilotinib]
Summary of the method: as §1

[7] = compound: Cc1nc(Nc2n[nH]c3c2CN(C(=O)N[C@H](CN(C)C)c2ccccc2)C3(C)C)c2sccc2n1
Summary of the method: as §1

[8] = compound: Cc1ncc(-c2ccnc(Nc3ccc(S(C)(=O)=O)cc3)n2)n1C(C)C
Summary of the method: as §1

tipifarnib = compound: Cn1cncc1[C@@](N)(c1ccc(Cl)cc1)c1ccc2c(c1)c(-c1cccc(Cl)c1)cc(=O)n2C [tipifarnib]
Summary of the method: as §1

Measured: log2 fold change

KLK3 (UniProt P07288)
inactive: dasatinib -0.963 | [1] 0.182

KLHL22 (UniProt Q53GT1)
inactive: dasatinib 0.018 | [1] -0.136 | [2] 0.038 | [3] -0.295 | vorinostat -0.082 | silmitasertib 0 | entospletinib 0.011

KDM5B isoform 2 (UniProt Q9UGL1)
inactive: dasatinib 0.021 | [1] -0.049 | quisinostat -0.117 | [4] -0.085 | [5] 0.034 | [2] -0.049 | [3] 0.11 | vorinostat 0.085 | silmitasertib -0.018 | [6] 0.116 | entospletinib -0.037

KLHL17 (UniProt Q6TDP4)
inactive: [2] -0.044 | vorinostat -0.141 | silmitasertib -0.015 | entospletinib 0.149

KREMEN1 isoform 2 (UniProt Q96MU8)
inactive: quisinostat -0.065 | [4] 0.047 | [6] 0.206

KRBA1 (UniProt A5PL33)
inactive: dasatinib 0.058 | [1] -0.094 | quisinostat -0.277 | [4] 0.205 | [5] 0.034 | [2] -0.077 | [3] -0.036 | vorinostat -0.396 | silmitasertib 0.032 | [6] -0.282 | entospletinib 0.061

KLHDC2 (UniProt Q9Y2U9)
inactive: quisinostat 0.058 | [4] -0.077 | [2] -0.084 | [3] -0.071 | vorinostat 0.145 | silmitasertib -0.039 | [6] 0.181

KIZ (UniProt Q2M2Z5)
inactive: dasatinib 0.016 | [1] -0.189 | quisinostat -0.039 | [4] 0.026 | [2] 0.086 | [3] 0.324 | vorinostat -0.026 | silmitasertib -0.112 | [6] 0.028 | entospletinib 0.043

KTN1 (UniProt G3V5Q0)
inactive: [2] -0.116 | [3] 0.039 | vorinostat -0.069 | silmitasertib -0.171 | entospletinib -0.119

KRAS isoform 2 (UniProt P01116)
inactive: dasatinib -0.029 | [1] -0.025 | quisinostat 0.018 | [4] 0.001 | [5] -0.046 | [2] 0.036 | vorinostat 0.068 | silmitasertib -0.015 | [6] -0.045 | entospletinib -0.129

LANCL3 (UniProt Q6ZV70)
inactive: nilotinib -0.193 | [7] -0.079 | [8] 0.079 | tipifarnib -0.129 | [3] -0.042 | entospletinib -0.063

KLHL20 (UniProt Q9Y2M5)
inactive: dasatinib -0.042 | [1] 0.003 | quisinostat 0.001 | [4] 0.042 | [5] 0.042 | [2] -0.019 | vorinostat 0.039 | silmitasertib -0.07 | [6] 0.014 | entospletinib -0.075

LAPTM4B (UniProt Q86VI4)
inactive: [2] -0.022 | vorinostat 0.044 | silmitasertib -0.043

KIFC3 isoform 6 (UniProt Q9BVG8)
inactive: dasatinib -0.055 | [1] -0.146 | quisinostat -0.189 | [4] 0.079 | [2] -0.213 | [3] 0.03 | vorinostat -0.025 | silmitasertib -0.124 | [6] 0.119 | entospletinib -0.063

KLC1 isoform 10 (UniProt Q07866)
inactive: [2] -0.159 | vorinostat -0.144 | silmitasertib -0.165 | entospletinib -0.171

LARGE2 (UniProt Q8N3Y3)
inactive: nilotinib -0.159 | [7] 0.065 | [8] -0.023 | tipifarnib 0.101

KLF1 (UniProt Q13351)
inactive: nilotinib -0.022 | [7] -0.122 | [8] 0.018 | tipifarnib -0.15 | [5] 0.07 | [2] 0.097 | vorinostat -0.278 | silmitasertib -0.084

KIDINS220 isoform 2 (UniProt Q9ULH0)
inactive: [3] 0.277

KDM5A (UniProt P29375)
inactive: dasatinib -0.175 | [1] 0.124 | quisinostat -0.047 | [4] -0.012 | [6] -0.022

LAMA5 (UniProt O15230)
inactive: dasatinib -0.031 | [1] 0.161 | quisinostat -0.042 | [4] 0.079 | [2] -0.055 | vorinostat 0.008 | silmitasertib 0.071 | [6] -0.118 | entospletinib 0.085

KRT87P (UniProt A6NCN2)
inactive: [2] -0.123 | vorinostat 0.074 | silmitasertib 0.011

LAMB2 (UniProt P55268)
inactive: dasatinib -0.16 | [1] 0.147 | [2] 0.184 | vorinostat -0.383 | silmitasertib -0.001 | entospletinib -0.252

KIAA1549 (UniProt Q9HCM3)
inactive: nilotinib -0.143 | [7] 0.026 | [8] -0.014 | tipifarnib -0.262

KIAA0556 (UniProt O60303)
inactive: nilotinib -1.05 | [7] 0.164 | [8] 0.015 | tipifarnib 0.298

Copied from the listing (2 entries):
KRT87P (UniProt A6NCN2)
inactive: [2] -0.123 | vorinostat 0.074 | silmitasertib 0.011

LAMB2 (UniProt P55268)
inactive: dasatinib -0.16 | [1] 0.147 | [2] 0.184 | vorinostat -0.383 | silmitasertib -0.001 | entospletinib -0.252
